Patent US20170129919A1, “CYCLIC DIPEPTIDE-CONTAINING COMPOSITION” (Suntory Holdings Limited, priority 2014, published 2017)
Some entries share one result that the patent states for a list of compounds. At least one structure is not confirmed: it was looked up by name or label, or the drawing left a doubt.

Assay: Solubility in water
Assay type: physicochemical
Conditions: water at 25° C., text statement
Experimental: Concretely, each compound was added to distilled water (manufactured by Otsuka Pharmaceutical Co., Ltd.) at an ambient temperature (25° C.) so as to have a final concentration of 5 mM, and the mixture was stirred under ultrasonication for 30 minutes to dissolve. […] However, none of the compounds dissolved, so that distilled water was further added thereto so as to have a final concentration of 0.01 mM, and the mixture was stirred under ultrasonication for 30 minutes, but still no compounds dissolved.

SMILES	solubility in water	further results
N=C(N)NCCCC1NC(=O)C(Cc2ccc(O)cc2)NC1=O (stereo not shown) [Cyclo(Arg-Tyr), cycloarginyltyrosine]	≥ 5000 µM	solubility in water (listed as cycloarginyltyrosine): ≥ 1000 µM
NC(=O)C[C@@H]1NC(=O)[C@H](Cc2ccc(O)cc2)NC1=O [Cyclo(Asn-Tyr), cycloasparaginyltyrosine]	≥ 1000 µM	
O=C(O)C[C@@H]1NC(=O)[C@H](Cc2ccc(O)cc2)NC1=O [Cyclo(Asp-Tyr), cycloaspartyltyrosine]	≥ 5000 µM	solubility in water (listed as cycloaspartyltyrosine): ≥ 1000 µM
NC(=O)CC[C@@H]1NC(=O)[C@H](Cc2ccc(O)cc2)NC1=O [Cyclo(Gln-Tyr), cycloglutaminyltyrosine]	≥ 1000 µM	
O=C(O)CC[C@@H]1NC(=O)[C@H](Cc2ccc(O)cc2)NC1=O [Cyclo(Glu-Tyr), cycloglutamyltyrosine]	≥ 5000 µM	
CCC(C)C1NC(=O)C(Cc2ccc(O)cc2)NC1=O (stereo not shown) [Cyclo(Ile-Tyr), cycloisoleucyltyrosine]	≥ 1000 µM	
NCCCC[C@@H]1NC(=O)[C@H](Cc2ccc(O)cc2)NC1=O [Cyclo(Lys-Tyr), cyclolysyltyrosine]	≥ 5000 µM	solubility in water (listed as cyclolysyltyrosine): ≥ 1000 µM
CSCCC1NC(=O)C(Cc2ccc(O)cc2)NC1=O (stereo not shown) [Cyclo(Met-Tyr), cyclomethionyltyrosine]	≥ 5000 µM	solubility in water (listed as cyclomethionyltyrosine): ≥ 1000 µM
C[C@@H](O)[C@@H]1NC(=O)[C@H](Cc2ccc(O)cc2)NC1=O [Cyclo(Thr-Tyr), cyclothreonyltyrosine]	≥ 1000 µM	
